In PMC10844636:
No constants are given. Whether binding was seen depends on the method and setting. In cells and extracts the contact can be indirect. Some results given as binding are weak or reduced against the parent protein; the word gives no strength.

Chains of the proteins cited; added tags and fusions are not shown.
UniProt O00571: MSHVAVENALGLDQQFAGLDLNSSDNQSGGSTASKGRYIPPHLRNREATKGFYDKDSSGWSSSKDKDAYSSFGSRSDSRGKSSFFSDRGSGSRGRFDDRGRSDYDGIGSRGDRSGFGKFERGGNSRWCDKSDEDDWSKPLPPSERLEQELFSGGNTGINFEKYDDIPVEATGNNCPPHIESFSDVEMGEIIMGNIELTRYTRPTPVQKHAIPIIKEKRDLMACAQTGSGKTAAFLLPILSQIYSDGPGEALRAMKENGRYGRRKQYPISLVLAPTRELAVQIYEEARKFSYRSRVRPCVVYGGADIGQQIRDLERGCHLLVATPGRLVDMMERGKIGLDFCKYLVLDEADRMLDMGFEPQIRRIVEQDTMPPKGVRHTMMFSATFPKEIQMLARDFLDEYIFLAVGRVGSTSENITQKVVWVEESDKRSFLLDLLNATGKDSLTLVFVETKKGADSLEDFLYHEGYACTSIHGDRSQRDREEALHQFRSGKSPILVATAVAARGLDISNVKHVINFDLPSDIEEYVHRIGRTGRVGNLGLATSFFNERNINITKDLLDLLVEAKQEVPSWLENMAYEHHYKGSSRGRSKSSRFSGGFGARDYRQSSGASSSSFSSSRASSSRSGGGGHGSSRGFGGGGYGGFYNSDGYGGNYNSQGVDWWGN
UniProt Q9NRC8: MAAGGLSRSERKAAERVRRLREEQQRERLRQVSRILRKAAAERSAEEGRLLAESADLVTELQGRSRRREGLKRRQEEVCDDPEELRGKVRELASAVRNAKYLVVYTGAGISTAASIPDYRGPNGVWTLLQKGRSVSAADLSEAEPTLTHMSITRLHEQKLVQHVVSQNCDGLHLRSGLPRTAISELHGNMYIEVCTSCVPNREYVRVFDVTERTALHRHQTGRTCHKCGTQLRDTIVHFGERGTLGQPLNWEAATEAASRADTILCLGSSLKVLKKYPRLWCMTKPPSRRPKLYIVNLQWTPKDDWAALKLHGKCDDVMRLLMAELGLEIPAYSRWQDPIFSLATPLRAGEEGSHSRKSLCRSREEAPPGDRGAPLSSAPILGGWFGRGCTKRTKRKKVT

Target: X-linked DEAD-box helicase 3 (DDX3X) (UniProt O00571)
Test: co-IP; in PANC-1 cells; which protein was precipitated and which was blotted is not told in the text shown

sirtuin 7 (SIRT7) (from UniProt Q9NRC8 1-400)
binding: binds
